Measurements reported in PubChem BioAssay AID504791 (Drosophila RNAi Screening Center, 2011)
The deposit covers about 23,000 reagents; below is a random part of those that have a named target and a result. Over the whole deposit, 199 (0.86%) were called active. 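Plate-scaled ratios behind the calls are not deposited; printed light signals are raw; many rows marked increased or decreased are still called inactive.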 Entries without a mark were called inactive. The numbers tell different reagents against one gene apart. Names joined by + are all predicted targets of the reagent. Not stated in the record: the direction of the score.

- Test: 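Genes of the fly required for silencing by miRNA, siRNA or endo-siRNA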 (primary screen)
- Cells: Drosophila S2-derived reporter cells
- Reagent: long dsRNA against Drosophila genes, about 150-250 ng dsRNA per well (siRNA assay); about 80-120 ng (miRNA assay)
- Timing: about 5 days (siRNA assay); about 4 days (miRNA assay)
- Challenge: copper sulfate induction of reporters: 25 µM (siRNA assay); 200 mM stated (miRNA assay), 1-2 days before reading
- Detection: 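Per-well ratio of Renilla over firefly light, expressed relative to that plate's average ratio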
- Rule for the call: 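a well was a first-pass pick when its plate-scaled ratio rose above 1.5 (siRNA assay) or 1.6 (miRNA assay), or dropped below 0.6; a gene counted only if two separate dsRNAs agreed on retest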

no.	target	reagent no.	stable siRNA reporter change	miRNA reporter change	stable assay Renilla, run 1 (luminescence)	stable assay firefly, run 1 (luminescence)
1	Cht2	1			8556	3.00e5
2	Jhbp14	1			7577	4.97e5
3	CG13996	1	reporter ratio lowered past the hit cutoff		3923	3.67e5
4	Plc21C	1			11874	3.59e5
5	CG11779 + CG5835	1			8023	2.72e5
6	fh	1			4915	4.51e5
7	CG14402	1			7151	3.55e5
8	RpL21	1	reporter ratio raised past the hit cutoff (active)		6895	2.55e5
9	wds	1	reporter ratio raised past the hit cutoff (active)		13692	4.62e5
10	bmm	1			7519	2.83e5
11	Gal	1			8039	4.77e5
12	Appl	1			8027	3.69e5
13	Appl	2		reporter ratio lowered past the hit cutoff		
14	Lamtor2 + CG30120	1			6327	4.00e5
15	Lamtor2 + CG30120	2			5496	3.34e5
16	Brd7-9	1			2.72e5	3.29e5
17	CG14135	1			6620	3.85e5
18	CG13577	1			5502	3.66e5
19	G9a	1			6880	3.09e5
20	CG6712	1			11764	1.66e6
21	CG6712	2			8202	3.70e5
22	blow	1			8616	4.76e5
23	CG11672	1			7992	4.56e5
24	CG33722 + CG18749	1			5991	4.16e5
25	CG33722 + CG18749	2			7303	5.01e5
26	CG5986	1			11866	3.82e5
27	Pus7	1			6312	4.47e5
28	CG18467	1			7543	4.48e5
29	Bsg	1			4635	3.53e5
30	Bsg	2			4890	4.56e5
31	tHMG2	1			8313	4.51e5
32	Lerp	1			7027	3.39e5
33	Lerp	2			6958	4.77e5
34	Lerp	3			7722	3.48e5
35	Lerp	4			5840	3.55e5
36	CG15506	1			6199	3.62e5
37	EndoB	1			6758	3.32e5
38	Rsph9	1			5503	3.10e5
39	CG15306	1			5367	4.34e5
40	CG15306	2			5096	3.74e5
41	CG5024	1			6506	3.74e5
42	Prosbeta3	1	reporter ratio raised past the hit cutoff (active)		8724	2.71e5
43	Mst84Dd	1			7475	5.82e5
44	l(2)34Fd	1			6782	1.52e6
45	CG42521	1			6880	6.33e5
46	Ir76a	1			7807	3.10e5
47	CG30371	1			6902	3.95e5
48	Cpr49Ae	1			6914	3.20e5
49	CG8642	1			6543	3.20e5
50	CR11023	1			7531	3.29e5
51	Sr-CIII	1			8484	6.12e5
52	Gr98c	1			9110	6.54e5
53	TTLL12	1			6886	4.05e5
54	CG4393	1			6455	3.53e5
55	CG7763	1			6384	3.86e5
56	CG3045	1			7543	5.21e5
57	AnxB11	1			9042	7.25e5
58	Dtg	1			7075	3.96e5
59	CG7912	1			6046	3.51e5
60	Obp47a	1			6594	4.99e5
61	Sirt4	1			4803	2.78e5
62	Chd1	1			25756	1.41e5
63	CG42709	1			8354	4.74e5
64	Vm34Ca	1			8267	4.74e5
65	RYa-R	1			8752	4.72e5
66	Vha55	1			7598	4.19e5
67	CG14535	1			7602	3.33e5
68	Dnaaf4	1			6466	3.48e5
69	osy	1			6256	3.25e5
70	osy	2			7126	3.27e5
71	osy	3			7818	4.51e5
72	Wnt10	1			5731	5.30e5
73	Wnt10	2			8027	4.27e5
74	Med	1			5432	2.27e5
75	eEF5	1			5776	4.74e5
76	Pdp1	1		reporter ratio raised past the hit cutoff	2748	2.16e5
77	Pdp1	2			3204	2.16e5
78	Pdp1	3			6638	4.66e5
79	Pdp1	4			3595	3.63e5
80	CG33158	1			5032	5.66e5
81	CG33158	2			8079	5.44e5
82	CG33158	3			8410	4.04e5
83	Cpr66Cb	1			6050	4.74e5
84	CG10793	1			7199	4.46e5
85	CG11060	1			39812	1.61e6
86	mRpS28	1			5712	3.32e5
87	sra	1			11434	5.12e5
88	Marc	1			6266	4.03e5
89	Wdfy2	1			16442	9.09e5
90	CG1637	1			5882	4.59e5
91	CG1637	2			8086	6.55e5
92	CG1637	3			5508	3.48e5
93	CG3713	1			7206	5.31e5
94	Usp5	1			7618	4.28e5
95	Notum	1			7923	3.76e5
96	EloB	1			7860	3.59e5
97	CG32111 (retired record)	1			5519	3.53e5
98	CG6707	1			6692	3.65e5
99	cact	1			8718	1.44e6
100	CG6000	1			6974	3.32e5
101	p53	1			7912	3.36e5
102	GC	1			8210	3.58e5
103	ko	1			7170	3.62e5
104	wac	1			6159	3.36e5
105	Neos	1			9658	6.63e5
106	Eglp2	1			2.06e5	4.81e5

In a second layout: results already given.
bmm
- stable assay Renilla, run 1 (luminescence): 7519
- stable assay firefly, run 1 (luminescence): 2.83e5

Gal
- stable assay Renilla, run 1 (luminescence): 8039
- stable assay firefly, run 1 (luminescence): 4.77e5

Appl #1
- stable assay Renilla, run 1 (luminescence): 8027
- stable assay firefly, run 1 (luminescence): 3.69e5

Appl #2
- miRNA reporter change: reporter ratio lowered past the hit cutoff

Lamtor2 + CG30120 #1
- stable assay Renilla, run 1 (luminescence): 6327
- stable assay firefly, run 1 (luminescence): 4.00e5

Lamtor2 + CG30120 #2
- stable assay Renilla, run 1 (luminescence): 5496
- stable assay firefly, run 1 (luminescence): 3.34e5
